In article PMC12139101:
No signal at the amounts used counts as a negative. For part of these data: At least one verdict was read from the data and is not stated in words by the source. For part of these data: The exact form of at least one protein or probe is not confirmed. For part of these data: At least one result comes from cells or an extract, where the contact may be indirect.

Legend:
[1] = target: SP1 (human (K562 cells)) (UniProt P08047); assay: pull-down, immunoblot; details: Pull-down: 25 mM HEPES-KOH pH 7.4, 10.5 mM NaCl, 110 mM KCl, 1 mM MgCl2, 0.01 mM ZnCl2, 20% glycerol, 0.1% IGEPAL, 3% BSA, 1 mM DTT, salmon sperm DNA; protein in an extract; label: biotin; letters put together from the description
[2] = target: POLR2C (human) (UniProt P19387); assay: ELISA; details: up to 200 nM, 100 mM K+; ELISA: oligos folded in Tris-HCl pH 7.4, 100 mM KCl; ELISA buffer 100 mM KCl, 50 mM KH2PO4 pH 7.4, 3% BSA block, 1 h (room temperature stated for coating and blocking); recombinant protein; residues 1-275; protein details: His; label: biotin (printed at 5' end); folded or branched DNA

**Q.** Does “CCAGAAGCGGGGGTGGGGCACTGACCCCGACAGGGGCCT (double strand) [HS2 bWT duplex]” bind [1]?
**A.** no binding

**Q.** Does “CCAGAAGCGGGGGTGGGGCACTGACCCCGACAGGGGCCT [HS2_G4_WT (bWT)]” bind [2]?
**A.** no binding

**Q.** Does “CCATAATGCCAAGCTTGAGCACTGATTCCGACACTAGACCT (double strand) [HS2 bMut duplex]” bind [1]?
**A.** no binding

**Q.** Does “TGGGGGTGGAGGTGGGACAAGGGAAAGGGGTGA (double strand) [HS-40 aWT duplex]” bind [1]?
**A.** no binding

**Q.** Does “TGGGGGTGGAGGTGGGACAAGGGAAAGGGGTGA [HS-40_G4_aWT]” bind [2]?
**A.** no binding

**Q.** Does “TGTGTGTGGATGTGTGACAAGTGAAATGTGTGA (double strand) [HS-40 aMut duplex]” bind [1]?
**A.** no binding
